Measurements published in PubChem BioAssay AID540256 (National Center for Advancing Translational Sciences (NCATS), 2011).
The campaign covered roughly 300,000 compounds. About 3,700 (1.2%) were called active. Inconclusive results, whose numbers are uncertain, are shown with a selection of clear calls. Calls come from the whole dose curve; tested in HEK293 cells. Where the call is inconclusive, the potency comes from a doubtful curve fit.

Assay: qHTS for Inhibitors of binding or entry into cells for Lassa Virus; note: nearly all actives have a fitted effect of over 50% in size
Details: Lassa virus pseudotype entry inhibition, cell reporter; series mostly up to 37.9 µM
Potency is the fitted concentration of half-maximal effect.

**Q.** For CC#Cc1cc2c(cc1O)CCC1C2CCC2(C)C(O)CCC12 (centres undefined), which Potency is on record?
**A.** inconclusive: 3.16 µM [inhibitor, single point]

**Q.** For O=C(Nc1sc2c(c1C(=O)NCC1CCCO1)CCC2)c1cc(=O)c2ccccc2o1 (centres undefined), which Potency is on record?
**A.** inconclusive: 35.5 µM [activator, single point]

**Q.** For COc1ccc(CNC(=O)C2CCN(c3nc4ccccc4[nH]3)CC2)cc1OC, which Potency is on record?
**A.** inactive

**Q.** Which Potency does the source give for NC(=O)c1nsc(C(=O)N(c2ccc(F)cc2)C(C(=O)NCC2CCCO2)c2ccc3ncccc3c2)c1N (centres undefined) here?
**A.** inactive

**Q.** For COCCCNc1oc(-c2ccc(COc3ccc(Cl)cc3)o2)nc1C#N, which Potency is on record?
**A.** inactive

**Q.** Which Potency does the source give for CN1C(=O)C(O)(CC(=O)/C=C/C=C/c2ccccc2)c2ccccc21 (centres undefined) here?
**A.** inconclusive: 1.26 µM [inhibitor, single point]

**Q.** Which Potency does the source give for CN(C)CCC1Sc2ccccc2Oc2ccccc21 (centres undefined) here?
**A.** inactive

**Q.** For CCC(C)N1C(=O)/C(=C\c2cnc(N(C)C)nc2)C(=O)NC1=S (centres undefined), which Potency is on record?
**A.** inactive

**Q.** Which Potency does the source give for CCSC1=NC2(CCN(C(=O)NC3CCCCC3)CC2)N=C1c1ccc(Cl)cc1 here?
**A.** inactive

**Q.** For O=C(COC(=O)CNC(=O)C1CCCCC1)Nc1ccc(Br)cc1Br, which Potency is on record?
**A.** inactive

**Q.** For CC(Sc1nnnn1-c1ccccc1)C(=O)NC1CCCC1 (centres undefined), which Potency is on record?
**A.** inactive

**Q.** Which Potency does the source give for Cc1nnc(SCc2ccc(F)cc2)s1 here?
**A.** inconclusive: 35.5 µM [activator, single point]

**Q.** With O=C(Nc1ccccc1Cl)c1ccc2nccnc2c1 as the compound, how does the Potency read?
**A.** inconclusive: 25.1 µM [inhibitor, single point]

**Q.** With CCN(CC)c1nc2ccccc2nc1C(=O)Nc1cccc(C(C)=O)c1 as the compound, how does the Potency read?
**A.** inconclusive: 35.5 µM [inhibitor, single point]

**Q.** With CCOC(=O)c1c(-c2ccc(C)cc2)csc1NC(=O)C1CCCO1 (centres undefined) as the compound, how does the Potency read?
**A.** inconclusive: 29.1 µM [inhibitor, single point]

**Q.** Which Potency does the source give for O=[N+]([O-])c1ccc(Sc2cccc3cccnc23)c2cccnc12 here?
**A.** inconclusive: 14.6 µM [inhibitor, partial curve]

**Q.** Which Potency does the source give for CCOc1ccc2nc(N(CCN(CC)CC)C(=O)c3cccc([N+](=O)[O-])c3)sc2c1 here?
**A.** inconclusive: 22.4 µM [inhibitor, partial curve, poor fit]

**Q.** For CC(C)n1c(O)c(N=NC(=O)C2COc3ccccc3O2)c2ccccc21 (centres undefined), which Potency is on record?
**A.** inconclusive: 1.26 µM [inhibitor, full curve, poor fit]

**Q.** With CCOc1ccc(CN2CCc3nc(Nc4ccc(OC)cc4OC)ncc3C2)cc1 as the compound, how does the Potency read?
**A.** inconclusive: 0.562 µM [activator, full curve, poor fit]

**Q.** For COc1ccc2c(C)nc(Nc3nc(-c4ccccc4)cc(=O)[nH]3)nc2c1, which Potency is on record?
**A.** active: 4.61 µM

**Q.** For O=c1c([N+](=O)[O-])cn(Cc2ccccc2)c(=O)n1Cc1ccccc1, which Potency is on record?
**A.** inconclusive: 2.82 µM [inhibitor, partial curve, poor fit]

**Q.** Which Potency does the source give for CN(CC(=O)Nc1cccc(F)c1)C(=O)CCc1nc2cc(S(=O)(=O)N3CCOCC3)ccc2n1C here?
**A.** inconclusive: 2.82 µM [inhibitor, partial curve, poor fit]

**Q.** Which Potency does the source give for CC(C)(C)c1ccc(C(=O)NC(=S)NCC2CCCO2)cc1 (centres undefined) here?
**A.** inactive

**Q.** With CC(=O)N(c1ccccc1)c1nc2ccccc2s1 as the compound, how does the Potency read?
**A.** inactive

**Q.** Which Potency does the source give for C=C(C)CNC(=S)NNC(=O)CCn1c2ccc(Cl)cc2c2cc(Cl)ccc21 here?
**A.** inconclusive: 35.5 µM [inhibitor, single point]

**Q.** For CCCCn1c(C)c(C(=O)OCC)c2c(CN3CCOCC3)c(O)ccc21, which Potency is on record?
**A.** inconclusive: 3.66 µM [inhibitor, full curve, poor fit]

**Q.** Which Potency does the source give for Cc1ccc(OCC(=O)Nc2cc(C)on2)c([N+](=O)[O-])n1 here?
**A.** inconclusive: 0.891 µM [inhibitor, single point]

**Q.** Which Potency does the source give for COc1cccc(C(=O)CSc2nnc(-c3cc(OC)cc(OC)c3)o2)c1 here?
**A.** inconclusive: 0.0065 µM [inhibitor, full curve, poor fit]

**Q.** With O=C(Cc1ccccc1)Nc1nc(-c2cccs2)cs1 as the compound, how does the Potency read?
**A.** inconclusive: 2.82 µM [inhibitor, full curve, poor fit]

**Q.** Which Potency does the source give for O=C(CN(c1ccccc1)S(=O)(=O)c1ccc(Cl)cc1)Nc1cccnc1 here?
**A.** inconclusive: 6.31 µM [inhibitor, partial curve, poor fit]

**Q.** With Cc1ccc2nc(-c3cccc(Br)c3)cc(C(=O)Nn3cnnc3)c2c1 as the compound, how does the Potency read?
**A.** inconclusive: 7.08 µM [inhibitor, partial curve, poor fit]

**Q.** For Cc1cccc(C(=O)Oc2ccc(/C=N/NC(=O)Cc3ccc([N+](=O)[O-])cc3)cc2)c1, which Potency is on record?
**A.** inconclusive: 5.01 µM [inhibitor, full curve]

**Q.** Which Potency does the source give for COc1ccccc1NC(=S)Nc1ccc2cn[nH]c2c1 here?
**A.** inactive

**Q.** For COC(=O)CNC(c1ccccc1)c1cc(C)ccc1NS(=O)(=O)c1ccc(C)cc1 (centres undefined), which Potency is on record?
**A.** inconclusive: 8.2 µM [inhibitor, partial curve]

**Q.** Which Potency does the source give for O=S(=O)(c1ccccc1)N(CC(O)COc1ccccc1)c1ccccc1 (centres undefined) here?
**A.** inconclusive: 35.5 µM [inhibitor, partial curve, poor fit]

**Q.** For N#CCNC(=O)c1nn2c(C(F)(F)F)cc(-c3ccccc3)nc2c1Br, which Potency is on record?
**A.** inconclusive: 3.55 µM [inhibitor, single point]

**Q.** Which Potency does the source give for N#CCCn1cc(/C=N/NC(N)=S)c(-c2ccccc2)n1 here?
**A.** inactive

**Q.** With c1ccc2c(Nc3ccc(N4CCOCC4)cc3)nc(N3CCOCC3)nc2c1 as the compound, how does the Potency read?
**A.** inconclusive: 11.2 µM [inhibitor, partial curve, poor fit]

**Q.** With COc1ccc(C(=O)Nc2ccc(S(=O)(=O)N3CCc4ccccc43)cc2)cc1 as the compound, how does the Potency read?
**A.** active: 12.6 µM

**Q.** With COc1ccc(C2Nc3ccccc3C(=O)N2c2ccc(C)cc2)cc1Cn1cc([N+](=O)[O-])cn1 (centres undefined) as the compound, how does the Potency read?
**A.** inconclusive: 2.06 µM [activator, partial curve]

**Q.** With Nc1ccc(Nc2nc(-c3cccs3)cs2)cc1 as the compound, how does the Potency read?
**A.** inconclusive: 2.51 µM [activator, full curve, poor fit]

**Q.** For Cc1cccc(C)c1NC(=S)N(CCc1ccncc1)C(C)C, which Potency is on record?
**A.** inactive

**Q.** Which Potency does the source give for Cc1ccc(NC(=O)c2sc3nc4c(cc3c2N)CN(Cc2ccccc2)CC4)cc1 here?
**A.** inactive

**Q.** Which Potency does the source give for COc1ccccc1CNc1nc(C)c(C(=O)N(C)C)s1 here?
**A.** inconclusive: 1.58 µM [inhibitor, partial curve, poor fit]
